PubChem BioAssay AID686938, Drosophila RNAi Screening Center – 2013

- Screen: 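Looking for CRAC channel components and the factors controlling them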 (primary screen)
- Cell system: Drosophila S2R+ cells
- Reagents: long dsRNA against Drosophila genes, about 0.25 µg dsRNA per well, roughly 10,000 cells
- Timing: 5 days of knock-down before the calcium assay
- Challenge: thapsigargin (SERCA pump blocker) to empty calcium stores; entry signal taken 4 min after adding it
- Measurement: 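Duplicate raw fluo-4 intensities per well from a plate reader, at rest and four minutes after thapsigargin emptied calcium stores; entry-to-rest ratio filled for only some wells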
- Reading the numbers: calcium entry signal: higher = stronger calcium signal after store depletion; entry to resting ratio: higher = more calcium entry relative to resting level; resting calcium signal: higher = higher resting calcium signal
- Rule for the call: 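Hit if the duplicate-averaged plate z-score for entry over resting signal is under −3; wells with weak total dye signal (Fmax z < −2) or more than 5 off-targets removed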
- Calls: active = strongly reduced calcium entry; inactive = no strong reduction
The deposit covers about 23,000 reagents; shown is a random part of those that have a named target and a result. Of all reagents, 75 (0.33%) are marked active. 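Raw plate signals without normalisation; calls rest on plate z-scores that were not deposited; ratio present for only 364 wells.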 The numbers tell different reagents against one gene apart. A plus sign joins genes that one reagent is predicted to hit. Not given: the dose of the treatment.

| predicted target | dsRNA no. | calcium entry signal, replicate 1 (fluorescence units) | calcium entry signal, replicate 2 (fluorescence units) | entry to resting ratio | resting calcium signal, replicate 1 (fluorescence units) | resting calcium signal, replicate 2 (fluorescence units) | Outcome |
| --- | --- | --- | --- | --- | --- | --- | --- |
| Lip2 | 1 | 3.34e7 | 4.51e7 | – | 1.36e7 | 1.98e7 | inactive |
| Lip2 | 2 | 2.52e7 | 3.84e7 | – | 1.26e7 | 1.83e7 | inactive |
| GatA | 1 | 3.21e7 | 2.57e7 | – | 1.66e7 | 1.22e7 | inactive |
| CG8323 | 1 | 3.90e7 | 3.50e7 | – | 1.96e7 | 1.59e7 | inactive |
| Nt5a | 1 | 3.27e7 | 2.84e7 | – | 1.53e7 | 1.45e7 | inactive |
| CG2701 | 1 | 3.66e7 | 3.93e7 | – | 1.72e7 | 1.74e7 | inactive |
| Vtld + CG42529 | 1 | 3.32e7 | 4.75e7 | – | 1.55e7 | 2.08e7 | inactive |
| Abl | 1 | 5.13e7 | 1.02e8 | – | 2.55e7 | 3.81e7 | inactive |
| Abl | 2 | 4.03e7 | 4.19e7 | – | 2.06e7 | 2.02e7 | inactive |
| CG14435 | 1 | 3.32e7 | 4.43e7 | – | 1.82e7 | 2.21e7 | inactive |
| CG14435 | 2 | 4.35e7 | 4.75e7 | – | 2.41e7 | 1.83e7 | inactive |
| Prps | 1 | 4.77e7 | 4.13e7 | – | 2.44e7 | 2.01e7 | inactive |
| Prps | 2 | 2.77e7 | 4.31e7 | – | 1.64e7 | 2.24e7 | inactive |
| Prps | 3 | 2.78e7 | 4.25e7 | – | 1.67e7 | 2.20e7 | inactive |
| CG7974 | 1 | 4.03e7 | 3.63e7 | – | 1.73e7 | 1.64e7 | inactive |
| gt | 1 | 2.54e7 | 2.63e7 | 1.9 | 1.35e7 | 1.36e7 | inactive |
| gt | 2 | 3.76e7 | 4.17e7 | – | 1.84e7 | 2.01e7 | inactive |
| GstE14 | 1 | 2.72e7 | 4.41e7 | – | 1.51e7 | 1.84e7 | inactive |
| Cubn2 | 1 | 2.16e7 | 3.01e7 | – | 1.12e7 | 1.37e7 | inactive |
| Cubn2 | 2 | 3.06e7 | 3.81e7 | – | 1.47e7 | 1.94e7 | inactive |
| CG1847 | 1 | 2.45e7 | 3.09e7 | – | 1.24e7 | 1.46e7 | inactive |
| CG9458 | 1 | 4.27e7 | 3.96e7 | – | 2.10e7 | 2.25e7 | inactive |
| lectin-37Db | 1 | 4.10e7 | 4.96e7 | – | 2.04e7 | 2.19e7 | inactive |
| neur + asRNA:CR31429 | 1 | 3.27e7 | 3.81e7 | – | 1.44e7 | 1.73e7 | inactive |
| MTPAP | 1 | 4.31e7 | 3.71e7 | 2.2 | 1.99e7 | 1.63e7 | inactive |
| Rubicon | 1 | 3.37e7 | 3.78e7 | – | 1.72e7 | 1.83e7 | inactive |

An excerpt from the list above, as a working copy:
| predicted target | dsRNA no. | calcium entry signal, replicate 1 (fluorescence units) | calcium entry signal, replicate 2 (fluorescence units) | entry to resting ratio | resting calcium signal, replicate 1 (fluorescence units) | resting calcium signal, replicate 2 (fluorescence units) | Outcome |
| --- | --- | --- | --- | --- | --- | --- | --- |
| gt | 1 | 2.54e7 | 2.63e7 | 1.9 | 1.35e7 | 1.36e7 | inactive |
| gt | 2 | 3.76e7 | 4.17e7 | – | 1.84e7 | 2.01e7 | inactive |
| GstE14 | 1 | 2.72e7 | 4.41e7 | – | 1.51e7 | 1.84e7 | inactive |
| Cubn2 | 1 | 2.16e7 | 3.01e7 | – | 1.12e7 | 1.37e7 | inactive |
| Cubn2 | 2 | 3.06e7 | 3.81e7 | – | 1.47e7 | 1.94e7 | inactive |
| CG1847 | 1 | 2.45e7 | 3.09e7 | – | 1.24e7 | 1.46e7 | inactive |

The listing continues:
| predicted target | dsRNA no. | calcium entry signal, replicate 1 (fluorescence units) | calcium entry signal, replicate 2 (fluorescence units) | entry to resting ratio | resting calcium signal, replicate 1 (fluorescence units) | resting calcium signal, replicate 2 (fluorescence units) | Outcome |
| --- | --- | --- | --- | --- | --- | --- | --- |
| LSm1 | 1 | 3.49e7 | 3.79e7 | – | 1.90e7 | 1.61e7 | inactive |
| CG5439 | 1 | 4.45e7 | – | – | 2.36e7 | – | inactive |
| CG43308 | 1 | 2.13e7 | 3.71e7 | – | 1.04e7 | 1.75e7 | inactive |
| Scgalpha | 1 | 2.76e7 | 3.90e7 | – | 1.36e7 | 1.98e7 | inactive |
| NimB1 | 1 | 4.40e7 | – | – | 2.03e7 | – | inactive |
| ver | 1 | 2.36e7 | 2.90e7 | – | 1.29e7 | 1.34e7 | inactive |
| js | 1 | 3.85e7 | 4.32e7 | – | 1.91e7 | 5.95e7 | inactive |
| Nmdar1 | 1 | 3.10e7 | 5.33e7 | – | 1.48e7 | 2.59e7 | inactive |
| Nmdar1 | 2 | 3.32e7 | 2.80e7 | – | 1.67e7 | 1.36e7 | inactive |
| bero | 1 | 4.28e7 | 4.72e7 | – | 2.18e7 | 2.04e7 | inactive |
| Hex-C | 1 | 3.21e7 | 3.29e7 | – | 1.70e7 | 1.66e7 | inactive |
| CG3342 | 1 | 3.14e7 | 3.57e7 | – | 1.51e7 | 1.52e7 | inactive |
| CG7794 | 1 | 3.57e7 | 4.02e7 | – | 4.65e7 | 1.75e7 | inactive |
| CG5897 | 1 | 2.74e7 | 3.65e7 | – | 1.47e7 | 1.50e7 | inactive |
| CG6865 | 1 | 2.40e7 | 5.12e7 | – | 1.47e7 | 2.12e7 | inactive |
| Non1 | 1 | 2.09e7 | 1.76e7 | – | 1.04e7 | 1.01e7 | inactive |
| ci | 1 | 5.47e7 | 5.77e7 | 2.2 | 2.45e7 | 2.25e7 | inactive |
| Ilp4 | 1 | 3.38e7 | 5.16e7 | – | 1.67e7 | 2.16e7 | inactive |
| CG7785 | 1 | 3.58e7 | 3.65e7 | – | 4.24e7 | 1.69e7 | inactive |
| CG13306 | 1 | 3.56e7 | 4.95e7 | – | 1.63e7 | 2.12e7 | inactive |
| CycA | 1 | 3.27e7 | 5.44e7 | – | 2.09e7 | 3.45e7 | active |
| CycA | 2 | 3.61e7 | 4.93e7 | – | 2.14e7 | 3.80e7 | inactive |
| dsx | 1 | 2.44e7 | 3.16e7 | – | 1.19e7 | 1.38e7 | inactive |
| dsx | 2 | 2.29e7 | 6.65e7 | – | 9.96e6 | 3.13e7 | inactive |
| dsx | 3 | 3.64e7 | 4.13e7 | – | 1.96e7 | 1.81e7 | inactive |
| L | 1 | 2.50e7 | 2.83e7 | – | 1.27e7 | 1.30e7 | inactive |
| L | 2 | 2.47e7 | 3.35e7 | – | 1.34e7 | 1.43e7 | inactive |
| CG10725 | 1 | 4.40e7 | 3.05e7 | – | 2.76e7 | 1.50e7 | inactive |
| sav | 1 | 5.38e7 | 6.05e7 | – | 2.69e7 | 2.45e7 | inactive |
| sav | 2 | 4.86e7 | 6.36e7 | – | 2.61e7 | 2.57e7 | inactive |
| CG31122 | 1 | 4.54e7 | 4.64e7 | – | 1.97e7 | 2.45e7 | inactive |
| CG31122 | 2 | 4.23e7 | 5.18e7 | – | 5.08e7 | 2.30e7 | inactive |
